No constants are given. Whether binding was seen depends on the method and setting. Some entries that bind do so weakly or less than the wild type.
Legend:
[1] = target: β2AR labeled at C265 with tetramethylrhodamine (UniProt P07550); assay: antibody dose-response on fluorescence of β2AR labeled at C265 with tetramethylrhodamine
[2] = target: N-terminally FLAG-tagged β2AR stably expressed in HEK-293 cells (UniProt P07550); assay: immunofluorescence on fixed, permeabilized HEK-293 cells expressing flag tagged β2AR
[3] = target: N-terminally FLAG-tagged β2AR stably expressed in HEK-293 cells (UniProt P07550); assay: immunofluorescence on fixed or fixed and permeabilized HEK-293 cells expressing FLAG-tagged β2AR
[4] = target: N-terminally FLAG-tagged β2AR stably expressed in HEK-293 cells (UniProt P07550); assay: immunofluorescence on permeabilized HEK-293 cells expressing FLAG-tagged β2AR
[5] = target: N-terminally FLAG-tagged β2AR stably expressed in HEK-293 cells (UniProt P07550); assay: immunofluorescence on fixed HEK-293 cells expressing FLAG-tagged β2AR
β2AR24/365 = β2AR24/365 (UniProt P07550); assay: X-ray data from crystals of the complex
β2AR365 [6] = target: β2AR365 (UniProt P07550); assay: X-ray crystal structure of the β2AR365-Fab5 complex
[7] = target: β2AR labeled at C265 with tetramethylrhodamine (UniProt P07550); assay: complex isolated by size exclusion chromatography and crystallized
β2AR365 [8] = target: β2AR365 (UniProt P07550); assay: complex purified by size exclusion chromatography
β2AR365 [9] = target: β2AR365 (UniProt P07550); assay: crystal structure of the β2AR-Fab complex

Measured: binding

B1: antibody 5 (intact mouse monoclonal antibody) (antibody, V domains shown)
VH: EVQLQQSGAELARPGASVKLSCKASGYIFTDYYINWVRQRTGQGFEWIGEIYPGSGNIDYNERFKDKATLTADKSSSTAYMQLSSLTSEDSAVYFCVRGFGYWGQGTTLTVSS
VL: DIKMTQSPSSMYASLGERVTITCKASQDINSYLSWFQQKPGKSPKTLIYRANRLVDGVPSRFIGTGSGQDYSLTISSLDYEDMGIYYCLQYDEFPYTFGGGTKLEIKR
binds: [1] | [2] | [3] | [4] | [5]

B2: Fab 5 (Fab fragment of antibody 5) (Fab, V domains shown)
VH: EVQLQQSGAELARPGASVKLSCKASGYIFTDYYINWVRQRTGQGFEWIGEIYPGSGNIDYNERFKDKATLTADKSSSTAYMQLSSLTSEDSAVYFCVRGFGYWGQGTTLTVSS
VL: DIKMTQSPSSMYASLGERVTITCKASQDINSYLSWFQQKPGKSPKTLIYRANRLVDGVPSRFIGTGSGQDYSLTISSLDYEDMGIYYCLQYDEFPYTFGGGTKLEIKR
binds: β2AR24/365 | β2AR365 [6] | [7] | β2AR365 [8] | β2AR365 [9]
